Record: PubChem BioAssay AID743121 (NCATS, 2013)

Purpose: 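Knock-downs that sensitise breast cancer cells to camptothecin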 (primary screen)
System: MDA-MB-231 cells, a human breast cancer line
Reagent: single siRNA against human genes, 20 nM siRNA (0.8 pmol per well)
Timing: 120 h (drug added 48 h after transfection, read 72 h later)
Treatment: camptothecin 20 nM (about EC30) for 72 h; vehicle 0.1% DMSO in parallel plates
Read-out: 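CellTiter-Glo ATP signal, scaled to control siRNA as percent viability; sensitisation given as log2 of untreated divided by camptothecin-treated viability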
Direction: log2 vehicle/camptothecin viability: higher = stronger sensitisation to camptothecin; viability with camptothecin and viability without drug: higher = more viable cells
Rule for the call: 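Each gene scored by redundant siRNA activity (RSA) over its individual siRNA ratios; a gene is called active at p < 0.001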
Here is one part, drawn at random, of about 26,000 reagents. 167 of them (0.63%) were called active. 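Calls are per gene from RSA p-values that are not deposited; an individual active-marked siRNA can sensitise only weakly.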 Unmarked entries are inactive. Reagent sequences are not shown.

no.	target	PubChem SID	log2 vehicle/camptothecin viability	viability with camptothecin (% of control)	viability without drug (% of control)
1	TNS3 (tensin 3)	SID164503858	-0.217	67.4	58
2	TNS3 (tensin 3)	SID164503859	-0.133	108	98.7
3	TNS3 (tensin 3)	SID164503866	-0.0263	17.1	16.8
4	VN1R4 (vomeronasal 1 receptor 4)	SID164652037	0.42	49.7	66.5
5	VN1R4 (vomeronasal 1 receptor 4)	SID164652039	-0.021	95.1	93.7
6	VN1R4 (vomeronasal 1 receptor 4)	SID174316044	-0.0322	72.1	70.5
7	VN1R4 (vomeronasal 1 receptor 4)	SID174316045	-0.126	52.8	48.4
8	AR (androgen receptor)	SID164353896	-0.109	68.6	63.6
9	AR (androgen receptor)	SID164353897	-0.0418	75.4	73.2
10	AR (androgen receptor)	SID164353899	-0.352	155	121
11	PRKAA2 (protein kinase AMP-activated catalytic subunit alpha 2)	SID164382471	-0.191	119	104
12	PRKAA2 (protein kinase AMP-activated catalytic subunit alpha 2)	SID164382474	-0.241	113	95.6
13	PRKAA2 (protein kinase AMP-activated catalytic subunit alpha 2)	SID164382475	-0.175	111	98.3
14	PRKAA2 (protein kinase AMP-activated catalytic subunit alpha 2)	SID164382476	-0.167	126	112
15	IKBKE (inhibitor of nuclear factor kappa B kinase subunit epsilon)	SID164405063	-0.0269	90.4	88.8
16	IKBKE (inhibitor of nuclear factor kappa B kinase subunit epsilon)	SID164405065	0.222	37.8	44.1
17	IKBKE (inhibitor of nuclear factor kappa B kinase subunit epsilon)	SID164405067	-0.207	116	101
18	IKBKE (inhibitor of nuclear factor kappa B kinase subunit epsilon)	SID164405069	0.214	76.5	88.7
19	CERS6 (ceramide synthase 6)	SID164605310	-0.289	75.1	61.5
20	CERS6 (ceramide synthase 6)	SID164605312	-0.124	87.1	79.9
21	CERS6 (ceramide synthase 6)	SID164605313	0.716	38.8	63.8
22	DSG1 (desmoglein 1)	SID164362223	-0.221	88.1	75.6
23	DSG1 (desmoglein 1)	SID164362226	0.0949	90.9	97.1
24	DSG1 (desmoglein 1)	SID164362228	-0.0742	41.1	39.1
25	ARSJ (arylsulfatase family member J)	SID164532283	-0.366	90.7	70.4
26	ARSJ (arylsulfatase family member J)	SID164532284	-0.747	106	62.9
27	ARSJ (arylsulfatase family member J)	SID164532289	0.359	69.9	89.6
28	ANP32A (acidic nuclear phosphoprotein 32 family member A)	SID164396317	-0.221	54.3	46.6
29	ANP32A (acidic nuclear phosphoprotein 32 family member A)	SID164396319	-0.00178	58.5	58.5
30	ANP32A (acidic nuclear phosphoprotein 32 family member A)	SID164396320	-0.573	79.9	53.7
31	ANP32A (acidic nuclear phosphoprotein 32 family member A)	SID164396322	-0.113	97.6	90.3

Just “viability with camptothecin (% of control)”, for 2 of the entries above:
IKBKE (inhibitor of nuclear factor kappa B kinase subunit epsilon) [SID164405063]	90.4
IKBKE (inhibitor of nuclear factor kappa B kinase subunit epsilon) [SID164405065]	37.8
